Laboratory results taken from publication doi:10.1101/2023.04.07.535983.
No constants are given. Whether binding was seen depends on the method and setting. In cells and extracts the contact can be indirect. Some results given as binding are weak or reduced against the parent protein; the word gives no strength. Tags and fused reporters may be left off the sequences shown.

Protein sequences, listed by entry. Tags and fused reporters are not part of them.
UniProt P9WI13: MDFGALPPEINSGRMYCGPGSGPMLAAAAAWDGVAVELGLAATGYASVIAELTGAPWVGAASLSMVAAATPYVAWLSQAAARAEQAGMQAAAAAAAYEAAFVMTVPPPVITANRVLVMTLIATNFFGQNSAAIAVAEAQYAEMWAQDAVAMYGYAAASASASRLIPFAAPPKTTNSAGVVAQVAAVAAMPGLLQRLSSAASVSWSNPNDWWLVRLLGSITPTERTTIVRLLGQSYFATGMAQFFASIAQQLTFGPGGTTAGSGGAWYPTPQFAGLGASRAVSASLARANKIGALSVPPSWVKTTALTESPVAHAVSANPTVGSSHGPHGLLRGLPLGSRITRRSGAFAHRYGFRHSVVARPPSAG

Tests used:
[1] = biological target: T1, PE18 (Rv1788), murine dihydrofolate reductase fragment fusion for M-PFC (Mycobacterium tuberculosis) (UniProt L7N649); experiment: split reporter
T1 sequence: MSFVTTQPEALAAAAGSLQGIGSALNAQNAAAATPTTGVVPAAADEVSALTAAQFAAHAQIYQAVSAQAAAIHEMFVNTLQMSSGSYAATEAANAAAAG

[2] = biological target: T2, PPE26 (Rv1789), murine dihydrofolate reductase fragment fusion for M-PFC (Mycobacterium tuberculosis) (UniProt Q79FK6); experiment: split reporter
T2 sequence: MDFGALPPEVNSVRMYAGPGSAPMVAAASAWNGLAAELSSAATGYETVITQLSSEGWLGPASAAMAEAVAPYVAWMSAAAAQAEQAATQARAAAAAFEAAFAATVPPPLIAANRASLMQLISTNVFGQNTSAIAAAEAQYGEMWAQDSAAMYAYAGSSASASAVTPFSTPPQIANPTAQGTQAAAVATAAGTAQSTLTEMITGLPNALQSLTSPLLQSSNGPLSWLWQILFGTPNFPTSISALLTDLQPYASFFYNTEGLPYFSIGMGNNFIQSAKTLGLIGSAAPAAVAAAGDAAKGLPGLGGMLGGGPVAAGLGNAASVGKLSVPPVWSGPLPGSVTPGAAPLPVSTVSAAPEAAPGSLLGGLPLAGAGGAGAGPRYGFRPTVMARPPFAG

[3] = biological target: T3, PPE26-c-myc (pJEX55-PPE26) (Mycobacterium tuberculosis) (UniProt Q79FK6); experiment: co-IP
T3 sequence: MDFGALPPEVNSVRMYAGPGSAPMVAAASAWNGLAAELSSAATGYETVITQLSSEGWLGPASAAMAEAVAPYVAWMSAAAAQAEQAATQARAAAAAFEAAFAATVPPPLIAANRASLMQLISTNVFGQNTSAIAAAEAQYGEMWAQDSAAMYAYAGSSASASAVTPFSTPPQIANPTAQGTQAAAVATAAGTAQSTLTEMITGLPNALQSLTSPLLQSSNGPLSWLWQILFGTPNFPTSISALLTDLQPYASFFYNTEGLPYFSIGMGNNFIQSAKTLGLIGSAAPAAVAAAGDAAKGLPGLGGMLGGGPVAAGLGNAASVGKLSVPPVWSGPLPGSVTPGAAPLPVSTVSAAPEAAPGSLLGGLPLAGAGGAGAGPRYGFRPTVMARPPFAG

[4] = biological target: T4, PE18 (Rv1788), murine dihydrofolate reductase fragment fusion for M-PFC (Mycobacterium tuberculosis), L7N649; experiment: split reporter; conditions: remark: other sources report otherwise
T4 chain: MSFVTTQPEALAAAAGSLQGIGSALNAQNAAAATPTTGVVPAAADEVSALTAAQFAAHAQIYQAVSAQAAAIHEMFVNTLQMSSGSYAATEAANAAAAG

PPE25 (Rv1787), murine dihydrofolate reductase fragment fusion for M-PFC (from UniProt P9WI13 1-365)
binding [1]: no binding | binding [2]: binds

PPE25-6xHis (pSCW54-PPE25) (from UniProt P9WI13 1-365)
binding [3]: binds

B1: PPE26 (Rv1789), murine dihydrofolate reductase fragment fusion for M-PFC, Q79FK6 1-393 (protein)
chain: MDFGALPPEVNSVRMYAGPGSAPMVAAASAWNGLAAELSSAATGYETVITQLSSEGWLGPASAAMAEAVAPYVAWMSAAAAQAEQAATQARAAAAAFEAAFAATVPPPLIAANRASLMQLISTNVFGQNTSAIAAAEAQYGEMWAQDSAAMYAYAGSSASASAVTPFSTPPQIANPTAQGTQAAAVATAAGTAQSTLTEMITGLPNALQSLTSPLLQSSNGPLSWLWQILFGTPNFPTSISALLTDLQPYASFFYNTEGLPYFSIGMGNNFIQSAKTLGLIGSAAPAAVAAAGDAAKGLPGLGGMLGGGPVAAGLGNAASVGKLSVPPVWSGPLPGSVTPGAAPLPVSTVSAAPEAAPGSLLGGLPLAGAGGAGAGPRYGFRPTVMARPPFAG
binding [4]: no binding
